For four substances, binding results are on record in publication PMC6169973.

Sequences of proteins named here, by UniProt entry; tags and fusion partners are left off. A change or cut given only in a name is not applied to a line headed by its entry. A line that says so, or that is headed by a name, gives the form on record, which may keep a tag or linker. Residues count along the entry.
UniProt Q9HB75, residues 777-883: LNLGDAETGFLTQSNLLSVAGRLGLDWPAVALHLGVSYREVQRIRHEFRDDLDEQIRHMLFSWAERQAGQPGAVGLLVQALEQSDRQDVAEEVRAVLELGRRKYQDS
UniProt P78560: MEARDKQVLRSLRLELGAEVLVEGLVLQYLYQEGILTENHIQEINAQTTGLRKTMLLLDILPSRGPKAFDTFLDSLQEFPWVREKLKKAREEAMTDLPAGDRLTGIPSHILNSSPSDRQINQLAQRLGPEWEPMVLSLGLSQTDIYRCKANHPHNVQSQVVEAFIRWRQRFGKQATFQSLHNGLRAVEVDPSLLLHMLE
RAIDD DD R170H (TLIS variant) (P78560, form named): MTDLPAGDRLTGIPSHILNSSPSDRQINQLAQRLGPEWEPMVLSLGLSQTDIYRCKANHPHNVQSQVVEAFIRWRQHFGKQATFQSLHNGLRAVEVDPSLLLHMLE

Experiment [1] has as its target PIDD DD (777-883) (UniProt Q9HB75). In words: native gel or EMSA; native PAGE on PhastSystem, 8-25% gradient gels; separately purified proteins pre-incubated 30 min at room temperature; Coomassie; both purified. For orientation: A gel shift assay detects complexes by their altered migration in electrophoresis.
The target is the same in experiment [2]. In words: SEC; RAIDD (full length, DD or mutant) mixed with a molar excess of PIDD DD, 30 min at room temperature; Superdex 200 HR 10/30 in 20 mM Tris-HCl pH 8.0, 150 mM NaCl; fractions on SDS-PAGE, Coomassie; both purified.

Results are given in words; binding and its absence hold for the method and conditions named.

Consider “RAIDD DD R170H (TLIS variant) (from UniProt P78560 94-199) (domain or fragment)”, for which the binding result in the experiment with PIDD DD (777-883) [1] and with PIDD DD (777-883) [2] was “no binding” each time. On to “full-length RAIDD F164C (TLIS variant) (from UniProt P78560 1-199)”, for which the binding entry in the experiment with PIDD DD (777-883) [1] is listed as “no binding”.

Consider “full-length RAIDD R170C (TLIS variant) (from UniProt P78560 1-199)”, for which the binding entry with PIDD DD (777-883) [1] and with PIDD DD (777-883) [2] was “no binding” throughout. For “full-length RAIDD R170H (TLIS variant) (from UniProt P78560 1-199)”, the binding result with PIDD DD (777-883) [1] and in the experiment with PIDD DD (777-883) [2] was “no binding” throughout.
